In the supplement of paper PMC12819154, “High-throughput peptide-centric local stability assay extends protein–ligand identification to membrane proteins, tissues and bacteria” (Nature Structural & Molecular Biology, 2025):
This is one part of the list. Small differences around the control level are noise.

The chains behind the UniProt entries cited, without tags or fusion partners. Where a name states a change or a piece, a line headed by the entry shows the natural chain unless it says otherwise.
UniProt Q96F63: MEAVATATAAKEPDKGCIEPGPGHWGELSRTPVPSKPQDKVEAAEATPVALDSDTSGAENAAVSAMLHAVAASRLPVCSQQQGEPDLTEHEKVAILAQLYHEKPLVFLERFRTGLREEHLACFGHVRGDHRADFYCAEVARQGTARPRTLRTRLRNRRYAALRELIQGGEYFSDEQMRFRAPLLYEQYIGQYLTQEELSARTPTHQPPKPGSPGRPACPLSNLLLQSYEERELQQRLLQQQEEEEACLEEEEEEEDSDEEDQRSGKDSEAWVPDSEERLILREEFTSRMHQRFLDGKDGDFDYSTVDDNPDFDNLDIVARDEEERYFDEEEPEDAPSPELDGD
UniProt Q96EP5: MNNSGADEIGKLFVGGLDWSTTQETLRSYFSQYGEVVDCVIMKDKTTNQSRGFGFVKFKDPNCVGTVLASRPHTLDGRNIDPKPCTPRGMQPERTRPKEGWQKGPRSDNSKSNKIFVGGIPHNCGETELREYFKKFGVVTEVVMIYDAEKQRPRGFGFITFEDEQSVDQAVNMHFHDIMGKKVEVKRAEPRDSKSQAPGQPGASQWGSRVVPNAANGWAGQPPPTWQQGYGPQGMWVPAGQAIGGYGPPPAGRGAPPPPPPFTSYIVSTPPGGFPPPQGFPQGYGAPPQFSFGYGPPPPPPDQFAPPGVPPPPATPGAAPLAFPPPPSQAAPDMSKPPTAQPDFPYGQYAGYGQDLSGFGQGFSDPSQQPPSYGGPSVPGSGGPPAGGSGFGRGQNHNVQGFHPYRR
UniProt Q96CS2: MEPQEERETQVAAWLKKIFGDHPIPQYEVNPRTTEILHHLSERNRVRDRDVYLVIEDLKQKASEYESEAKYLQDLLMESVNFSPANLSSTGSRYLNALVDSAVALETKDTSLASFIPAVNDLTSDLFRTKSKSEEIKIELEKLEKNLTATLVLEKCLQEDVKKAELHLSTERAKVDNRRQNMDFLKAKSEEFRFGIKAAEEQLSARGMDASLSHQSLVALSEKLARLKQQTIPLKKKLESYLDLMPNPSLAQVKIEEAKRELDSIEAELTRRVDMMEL
UniProt Q96EK4, whole entry: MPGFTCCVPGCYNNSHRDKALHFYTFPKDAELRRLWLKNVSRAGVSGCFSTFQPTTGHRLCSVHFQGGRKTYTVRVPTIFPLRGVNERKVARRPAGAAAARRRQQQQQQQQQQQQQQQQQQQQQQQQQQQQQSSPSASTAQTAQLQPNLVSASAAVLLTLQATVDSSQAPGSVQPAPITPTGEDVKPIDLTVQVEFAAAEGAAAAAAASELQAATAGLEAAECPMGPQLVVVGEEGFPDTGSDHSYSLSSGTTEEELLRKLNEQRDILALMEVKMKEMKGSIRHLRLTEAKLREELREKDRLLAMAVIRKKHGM
UniProt Q93033: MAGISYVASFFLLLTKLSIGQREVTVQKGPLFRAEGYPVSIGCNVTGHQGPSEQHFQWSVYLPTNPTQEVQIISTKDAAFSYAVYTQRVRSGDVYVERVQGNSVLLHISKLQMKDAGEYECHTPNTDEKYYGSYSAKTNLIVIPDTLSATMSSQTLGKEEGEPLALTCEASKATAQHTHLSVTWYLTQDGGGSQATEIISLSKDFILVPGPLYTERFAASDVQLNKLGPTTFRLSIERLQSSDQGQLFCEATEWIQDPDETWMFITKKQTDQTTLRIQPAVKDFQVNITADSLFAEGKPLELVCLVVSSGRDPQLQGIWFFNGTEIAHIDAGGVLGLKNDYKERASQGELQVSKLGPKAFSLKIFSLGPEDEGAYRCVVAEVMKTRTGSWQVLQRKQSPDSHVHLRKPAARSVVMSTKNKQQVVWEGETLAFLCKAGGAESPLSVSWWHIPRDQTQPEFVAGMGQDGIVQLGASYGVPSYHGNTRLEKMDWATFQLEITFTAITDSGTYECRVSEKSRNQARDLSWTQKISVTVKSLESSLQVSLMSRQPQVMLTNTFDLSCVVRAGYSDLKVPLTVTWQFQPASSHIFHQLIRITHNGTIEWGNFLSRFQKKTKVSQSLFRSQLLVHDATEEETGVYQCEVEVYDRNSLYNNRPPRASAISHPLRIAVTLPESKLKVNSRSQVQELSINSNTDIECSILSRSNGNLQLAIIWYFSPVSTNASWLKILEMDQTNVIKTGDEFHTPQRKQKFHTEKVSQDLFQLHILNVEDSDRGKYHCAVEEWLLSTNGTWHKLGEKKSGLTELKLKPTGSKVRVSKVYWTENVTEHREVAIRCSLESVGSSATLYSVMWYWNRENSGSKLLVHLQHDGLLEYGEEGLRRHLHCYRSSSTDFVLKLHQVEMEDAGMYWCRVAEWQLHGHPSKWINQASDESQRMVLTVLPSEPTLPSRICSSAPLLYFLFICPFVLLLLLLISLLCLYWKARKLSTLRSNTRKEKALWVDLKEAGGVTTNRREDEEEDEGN
UniProt Q96EK9: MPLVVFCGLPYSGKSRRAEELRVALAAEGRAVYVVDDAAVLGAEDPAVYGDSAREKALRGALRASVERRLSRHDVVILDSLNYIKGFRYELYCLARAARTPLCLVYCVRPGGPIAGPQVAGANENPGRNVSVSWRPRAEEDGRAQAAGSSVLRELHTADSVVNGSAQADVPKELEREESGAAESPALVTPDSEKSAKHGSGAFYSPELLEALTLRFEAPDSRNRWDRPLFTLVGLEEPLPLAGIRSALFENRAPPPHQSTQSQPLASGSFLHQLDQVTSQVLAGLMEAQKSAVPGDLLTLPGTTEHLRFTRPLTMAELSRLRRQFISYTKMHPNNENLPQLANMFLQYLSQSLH
UniProt Q96EK5: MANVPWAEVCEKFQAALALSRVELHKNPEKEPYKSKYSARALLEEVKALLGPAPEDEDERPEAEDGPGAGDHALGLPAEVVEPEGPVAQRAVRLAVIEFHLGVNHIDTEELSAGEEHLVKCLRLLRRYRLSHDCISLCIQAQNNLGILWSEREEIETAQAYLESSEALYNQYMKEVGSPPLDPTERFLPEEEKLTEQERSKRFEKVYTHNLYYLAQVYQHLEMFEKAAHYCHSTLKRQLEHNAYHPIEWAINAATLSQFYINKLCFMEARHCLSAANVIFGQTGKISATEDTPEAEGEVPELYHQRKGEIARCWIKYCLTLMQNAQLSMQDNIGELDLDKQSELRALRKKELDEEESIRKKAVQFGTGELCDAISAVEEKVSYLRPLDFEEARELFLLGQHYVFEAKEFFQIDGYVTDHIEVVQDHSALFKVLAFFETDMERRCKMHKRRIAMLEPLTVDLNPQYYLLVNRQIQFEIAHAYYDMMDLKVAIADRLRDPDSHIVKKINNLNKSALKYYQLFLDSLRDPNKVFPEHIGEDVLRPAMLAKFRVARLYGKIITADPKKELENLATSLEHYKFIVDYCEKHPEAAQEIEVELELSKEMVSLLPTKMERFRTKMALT
UniProt Q96FZ2: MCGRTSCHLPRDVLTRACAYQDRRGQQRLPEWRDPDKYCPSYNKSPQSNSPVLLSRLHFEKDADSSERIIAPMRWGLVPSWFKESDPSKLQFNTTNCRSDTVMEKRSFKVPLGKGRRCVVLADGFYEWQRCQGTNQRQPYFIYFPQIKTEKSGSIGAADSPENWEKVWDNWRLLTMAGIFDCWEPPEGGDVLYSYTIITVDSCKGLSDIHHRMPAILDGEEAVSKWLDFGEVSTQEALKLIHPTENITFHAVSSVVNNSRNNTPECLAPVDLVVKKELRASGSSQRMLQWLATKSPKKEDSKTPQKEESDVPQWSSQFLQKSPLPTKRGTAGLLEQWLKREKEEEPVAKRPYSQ
UniProt Q96F85: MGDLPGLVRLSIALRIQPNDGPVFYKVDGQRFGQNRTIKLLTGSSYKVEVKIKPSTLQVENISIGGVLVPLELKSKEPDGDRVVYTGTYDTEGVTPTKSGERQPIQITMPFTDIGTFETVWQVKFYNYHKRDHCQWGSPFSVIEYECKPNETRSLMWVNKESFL
UniProt Q96BR5: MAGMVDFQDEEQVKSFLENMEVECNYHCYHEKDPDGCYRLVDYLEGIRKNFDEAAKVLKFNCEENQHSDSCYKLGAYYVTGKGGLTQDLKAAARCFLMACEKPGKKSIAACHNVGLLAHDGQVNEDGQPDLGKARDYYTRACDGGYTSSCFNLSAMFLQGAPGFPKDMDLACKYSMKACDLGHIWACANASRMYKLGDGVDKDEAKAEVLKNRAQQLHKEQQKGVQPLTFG
UniProt Q92870: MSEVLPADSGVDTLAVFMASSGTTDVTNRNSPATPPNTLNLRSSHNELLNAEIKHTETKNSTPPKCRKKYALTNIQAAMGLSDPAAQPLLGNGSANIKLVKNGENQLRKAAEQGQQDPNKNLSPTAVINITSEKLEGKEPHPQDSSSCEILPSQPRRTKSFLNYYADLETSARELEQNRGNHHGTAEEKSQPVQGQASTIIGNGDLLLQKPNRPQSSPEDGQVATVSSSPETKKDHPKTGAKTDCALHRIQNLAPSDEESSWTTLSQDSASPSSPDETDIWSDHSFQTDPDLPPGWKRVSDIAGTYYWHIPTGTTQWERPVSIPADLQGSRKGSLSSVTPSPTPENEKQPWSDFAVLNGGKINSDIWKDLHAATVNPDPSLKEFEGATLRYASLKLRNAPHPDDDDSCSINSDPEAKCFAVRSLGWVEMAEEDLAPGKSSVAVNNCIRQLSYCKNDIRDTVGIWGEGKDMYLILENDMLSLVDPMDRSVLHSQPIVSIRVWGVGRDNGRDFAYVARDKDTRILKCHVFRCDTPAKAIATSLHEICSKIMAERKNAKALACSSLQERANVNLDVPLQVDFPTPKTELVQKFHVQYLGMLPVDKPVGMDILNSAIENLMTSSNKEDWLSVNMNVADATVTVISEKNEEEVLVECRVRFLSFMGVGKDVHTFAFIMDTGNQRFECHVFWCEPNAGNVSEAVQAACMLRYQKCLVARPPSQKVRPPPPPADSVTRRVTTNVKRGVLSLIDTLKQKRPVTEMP
UniProt Q96CW5, whole entry: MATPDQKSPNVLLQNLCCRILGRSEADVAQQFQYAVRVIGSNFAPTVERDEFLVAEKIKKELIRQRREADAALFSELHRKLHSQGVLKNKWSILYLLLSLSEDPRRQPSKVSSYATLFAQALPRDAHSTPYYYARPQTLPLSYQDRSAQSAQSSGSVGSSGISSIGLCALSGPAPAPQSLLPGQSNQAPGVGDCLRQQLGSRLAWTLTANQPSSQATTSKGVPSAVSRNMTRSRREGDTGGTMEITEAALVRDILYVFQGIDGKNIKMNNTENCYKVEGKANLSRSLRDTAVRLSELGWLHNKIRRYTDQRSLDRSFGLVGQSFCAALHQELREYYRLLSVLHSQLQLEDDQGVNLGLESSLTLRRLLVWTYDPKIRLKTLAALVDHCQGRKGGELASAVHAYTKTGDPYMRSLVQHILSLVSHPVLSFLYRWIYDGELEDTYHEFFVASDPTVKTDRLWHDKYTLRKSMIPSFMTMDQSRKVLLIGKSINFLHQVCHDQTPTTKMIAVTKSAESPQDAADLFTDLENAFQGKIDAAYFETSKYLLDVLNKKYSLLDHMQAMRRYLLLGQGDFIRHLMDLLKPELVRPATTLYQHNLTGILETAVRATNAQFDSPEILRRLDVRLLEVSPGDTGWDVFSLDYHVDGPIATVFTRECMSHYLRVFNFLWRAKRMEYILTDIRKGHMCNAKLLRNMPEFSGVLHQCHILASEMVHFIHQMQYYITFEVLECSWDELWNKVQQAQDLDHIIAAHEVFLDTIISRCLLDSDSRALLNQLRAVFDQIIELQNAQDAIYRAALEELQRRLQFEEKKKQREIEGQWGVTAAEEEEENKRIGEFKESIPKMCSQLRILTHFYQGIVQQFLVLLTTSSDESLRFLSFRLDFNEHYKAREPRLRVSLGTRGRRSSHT
UniProt Q96E39: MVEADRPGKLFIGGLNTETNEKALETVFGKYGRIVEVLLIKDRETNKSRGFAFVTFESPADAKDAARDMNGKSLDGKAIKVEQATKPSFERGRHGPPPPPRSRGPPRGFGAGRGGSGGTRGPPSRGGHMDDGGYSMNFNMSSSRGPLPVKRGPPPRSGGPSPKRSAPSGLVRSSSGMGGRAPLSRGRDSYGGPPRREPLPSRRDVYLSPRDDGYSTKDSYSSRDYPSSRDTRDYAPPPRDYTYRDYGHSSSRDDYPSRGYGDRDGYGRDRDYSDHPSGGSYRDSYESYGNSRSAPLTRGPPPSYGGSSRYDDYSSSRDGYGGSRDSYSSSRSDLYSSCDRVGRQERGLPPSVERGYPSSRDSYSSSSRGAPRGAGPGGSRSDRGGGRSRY
UniProt Q969R8: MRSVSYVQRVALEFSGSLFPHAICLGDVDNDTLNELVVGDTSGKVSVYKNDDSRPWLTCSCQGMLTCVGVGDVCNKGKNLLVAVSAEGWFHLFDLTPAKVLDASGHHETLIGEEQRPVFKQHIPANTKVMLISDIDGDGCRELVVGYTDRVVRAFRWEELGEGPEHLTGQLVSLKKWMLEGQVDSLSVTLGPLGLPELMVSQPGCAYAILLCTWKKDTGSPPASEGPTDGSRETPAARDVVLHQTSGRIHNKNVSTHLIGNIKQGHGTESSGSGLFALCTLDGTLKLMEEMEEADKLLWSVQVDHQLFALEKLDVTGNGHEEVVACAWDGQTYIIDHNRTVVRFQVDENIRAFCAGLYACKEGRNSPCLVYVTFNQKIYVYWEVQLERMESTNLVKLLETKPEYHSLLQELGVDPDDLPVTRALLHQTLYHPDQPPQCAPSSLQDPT

Each target was assayed with CN[C@@H]1C[C@H]2O[C@@](C)([C@@H]1OC)n1c3ccccc3c3c4c(c5c6ccccc6n2c5c31)C(=O)NC4 [staurosporine] (assay: log2 fold change of tryptic peptide abundance, ligand vs vehicle (limited proteolysis) (log2 ratio); higher = more trypsin-susceptible (destabilized)). Details: ligand concentration: 20 uM; sample: K562 cleared lysate; digestion: 4 min, 22 C (HT-PELSA RT4min, Orbitrap Astral).

**Q.** Which log2 fold change does the source give for “CCDC97 (peptide sequence: VAILAQLYHEKPLVFLER, peptide start residue: 93) (UniProt Q96F63)” here?
**A.** -0.174

**Q.** With “TRIM44 (peptide sequence: VIADEEQK, peptide start residue: 269) (UniProt Q96DX7)” as the target, how does the log2 fold change read?
**A.** -0.118

**Q.** How did the log2 fold change turn out when “SAAL1 (peptide sequence: VDLPLIDSLIR, peptide start residue: 348) (UniProt Q96ER3)” was run?
**A.** -0.131

**Q.** With “DAZAP1 (peptide sequence: LFVGGLDWSTTQETLR, peptide start residue: 12) (UniProt Q96EP5)” as the target, how does the log2 fold change read?
**A.** -0.234

**Q.** With “RPL36AL (peptide sequence: GKDSLYAQGR, peptide start residue: 29) (UniProt Q969Q0)” as the target, how does the log2 fold change read?
**A.** 0.0913

**Q.** Which log2 fold change does the source give for “TBRG4 (peptide sequence: VGHLSEPLMNRLEDK, peptide start residue: 231) (UniProt Q969Z0)” here?
**A.** 0.233

**Q.** With “UniProt Q96CS2 (peptide sequence: GMDASLSHQSLVALSEKLAR, peptide start residue: 207)” as the target, how does the log2 fold change read?
**A.** -0.509

**Q.** With “BICD1 (peptide sequence: ILEMQNELK, peptide start residue: 109) (UniProt Q96G01)” as the target, how does the log2 fold change read?
**A.** 0.297

**Q.** For “TANK (peptide sequence: IREQQEQLSLQQTIIDKLK, peptide start residue: 41) (UniProt Q92844)”, which log2 fold change is on record?
**A.** -0.528

**Q.** “THAP11 (peptide sequence: ALHFYTFPK, peptide start residue: 20) (UniProt Q96EK4)” was tested. Which log2 fold change did it give?
**A.** 0.213

**Q.** How did the log2 fold change turn out when “USP13 (peptide sequence: FTFGLDWVPK, peptide start residue: 576) (UniProt Q92995)” was run?
**A.** 0.111

**Q.** “UniProt Q93033 (peptide sequence: LGPKAFSLK, peptide start residue: 355)” was tested. Which log2 fold change did it give?
**A.** -0.28

**Q.** “KTI12 (peptide sequence: YELYCLAR, peptide start residue: 89) (UniProt Q96EK9)” was tested. Which log2 fold change did it give?
**A.** 0.356

**Q.** “UniProt Q96EK5 (peptide sequence: VFPEHIGEDVLRPAMLAK, peptide start residue: 530)” was tested. Which log2 fold change did it give?
**A.** 0.404

**Q.** For “UniProt Q96FZ2 (peptide sequence: LHFEKDADSSER, peptide start residue: 57)”, which log2 fold change is on record?
**A.** -0.256

**Q.** How did the log2 fold change turn out when “PTCD3 (peptide sequence: SDLREEILMLMAR, peptide start residue: 525) (UniProt Q96EY7)” was run?
**A.** 0.222

**Q.** Which log2 fold change does the source give for “CNRIP1 (peptide sequence: GDLPGLVR, peptide start residue: 2) (UniProt Q96F85)” here?
**A.** 0.218

**Q.** How did the log2 fold change turn out when “ARMC5 (peptide sequence: NLADSPQHR, peptide start residue: 222) (UniProt Q96C12)” was run?
**A.** -0.0979

**Q.** How did the log2 fold change turn out when “LTV1 (peptide sequence: RNEQLTLHDER, peptide start residue: 252) (UniProt Q96GA3)” was run?
**A.** 0.0991

**Q.** How did the log2 fold change turn out when “UniProt Q96BR5 (peptide sequence: DMDLACK, peptide start residue: 167)” was run?
**A.** -0.775

**Q.** “APBB2 (peptide sequence: GVLSLIDTLK, peptide start residue: 740) (UniProt Q92870)” was tested. Which log2 fold change did it give?
**A.** 0.0394

**Q.** With “TUBGCP3 (peptide sequence: YLLLGQGDFIR, peptide start residue: 565) (UniProt Q96CW5)” as the target, how does the log2 fold change read?
**A.** 0.943

**Q.** For “CDCA5 (peptide sequence: RIVAHAVEVPAVQSPR, peptide start residue: 62) (UniProt Q96FF9)”, which log2 fold change is on record?
**A.** -0.328

**Q.** For “RBMXL1 (peptide sequence: IVEVLLIKDRETNK, peptide start residue: 34) (UniProt Q96E39)”, which log2 fold change is on record?
**A.** 0.413

**Q.** How did the log2 fold change turn out when “ITFG2 (peptide sequence: FQVDENIR, peptide start residue: 344) (UniProt Q969R8)” was run?
**A.** -0.293
